Experimental data from patent publication US20060057652A1.
These are yes or no findings as the source states them, for the method shown. In cells and extracts the contact can be indirect. Some binding calls cover weakened binding; strength is not graded here. Where a sequence is shown, tags or fusion partners need not be part of it.

Target: T1, FLAG-tagged wild type Apoptin expressed from adenovirus Ad-Apwt (Chicken anemia virus) (UniProt Q99152)
T1 sequence: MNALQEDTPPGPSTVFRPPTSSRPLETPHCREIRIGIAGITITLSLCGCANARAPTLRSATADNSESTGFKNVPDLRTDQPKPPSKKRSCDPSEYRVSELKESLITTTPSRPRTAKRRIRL
Assay: co-immunoprecipitation on anti-FLAG beads from H1299 cells (multimerization)

B1: GFP-Apwt (protein)
chain: T1 sequence
modifications: N-terminal GFP fusion, GFP left out
  binding: binds
